# The list shows a part of the results. Further columns of the screen follow, without active or inactive calls. Most of these compounds were active or inconclusive in the main read-out, so they are no random draw. The note in brackets gives the kind of curve behind each potency; many fits are weak.
# Assay: qHTS Assay to Find Inhibitors of Chronic Active B-Cell Receptor Signaling
# Details: ABC-DLBCL IkBa-CBG/CBR reporter, luminescence ratio (green luciferase fused to IkBa over red control in TMD8 lymphoma cells), 4 h
# From the text: NIH Molecular Libraries Probe Production Network [MLPCN] NIH Chemical Genomics Center [NCGC] MLPCN Grant: 1 R03 DA031086-01A1 PI Name: Dr. R. Eric Davis NCGC Assay Overview: Diffuse large B-cell lymphoma (DLBCL) is the most common category of non-Hodgkin lymphoma, with ~20,000 new cases per year in the United States. DLBCL should be regarded as a collection of different neoplasms. Microarray gene expression analysis has defined two principal types of DLBCL, named for their similarity to normal B cell stages or activation states: a germinal center B-cell (GCB) type, and an activated B-cell (ABC) type. In ABC-DLBCL, a constitutive high-level activity of the NF-kappaB family of transcription factors has been observed (1) and NF-kappaB target genes are more highly expressed in ABC primary tumors than in GCB tumors. Functional studies have shown a constitutive high-level activity of the IkappaB (inhibitor of kappa-B) kinase (IKK) complex. […] Further analysis of DLBCL primary tumors for NF-kappaB target gene expression imply that although CARD11 is required for constitutive IKK activity in all ABC-DLBCL lines, mutations in CARD11 may be the root cause of IKK activation only in lines or tumors with such mutations. In other words, CARD11 mutations may explain NF-kappaB activation in only 10% of ABC-DLBCL cases. […] This process has been termed 'chronic active BCR signaling' (CABS). The goal of this screen is to find small-molecule inhibitors of the CABS pathway found in ABC-DLBCL lines using a cell-based assay that measures IkappaBalpa stability, which has already been extensively validated in the OCI-Ly3 line (PubChem AID:445; REF: 4). […] The assay uses green (CBG68) and red (CBR) emitting beetle luciferases [Chroma-GloTM developed by Promega Corp.] where the green luciferase is fused to IkappaBalpha and the red luciferase is present in its native state. Both luciferase genes are stably present in the TMD8 human ABC DLBCL cell line, but their expression is under the control of tetracycline-inducible promoters. Following the addition of doxycycline to induce expression of the luciferases, the green luminescence in control cultures rises only slowly because the CBG fusion partner IkappaBalpha is targeted by IKK activity for rapid degradation. In contrast, green luminescence rises rapidly in the presence of proteasome inhibitors or IKK inhibitors. The rise in red luminescence of CBR is not affected by proteasome or IKK inhibitors, and serves as normalization for cell number and nonspecific effects. Compounds were screened as a concentration-titration series that ranged from 46 uM to 3 nM.
# NCGC Assay Protocol Summary: Cells were seeded in 1536-well plates at 5000 cells/4uL in IMDM medium containing 0.5% FBS, w/o phenol red, 1% penicillin/streptomycin. Then, 23 nL of compounds or DMSO were delivered to each well using a pin tool. One uL 20ng/ml doxycycline was then dispensed into white solid 1536-well plates and the plates were incubated at 37C/5% C02 in a cell incubator for 4 hrs. Then 4 uL luminescent substrate mix (in-house prepared: 150 mM Tris-Cl, pH 7.6, 3 mM MgCl2, 1% Triton X-100, 5 mM DTT, 0.2 mM CoA, 0.15 mM ATP, 5 mM D-luciferin, final concentrations) was added to each well. The plate was incubated at r.t. for 10-15 min. The plates were measured on a ViewLux plate reader for green luminescence (540/20 nm filter) and red luminescence (618/8 nm filter). The green and red luminescent signals were corrected for red and green luminescence filter overlap using previously determined filter calibration constants (determined using the procedure outlined in the Promega Technical Manual; REF 4). The %Activity was determined from the ratio of corrected green/red luminescent values. MG132 were used as control. […] Red luminescent %Activity was normalized to the difference between red luminesence in basal cells (0%Activity) and zero luminescence (-100% Activity). […]
# [1] = measured here: CBR red luminescence, cell number
# [2] = measured here: IkBa-CBG green luminescence
SMILES,AC50 [1],AC50 [2]
CCc1nnc(NC(=O)OCc2ccccc2)s1,"13 µM [falling, partial curve, poor fit]",
NC(=S)N/N=C/c1ccccc1OC(=O)/C=C/c1ccccc1,"35.5 µM [falling, single point]","11.2 µM [falling, partial curve]"
Cc1ccc(Nc2nc3ccccc3n3cnnc23)cc1C,"0.631 µM [rising, full curve, poor fit]",
Nn1c(SCC(=O)Nc2ccc(F)cc2)nnc1-c1ccccn1,"12.6 µM [falling, partial curve, poor fit]",
O=C(C1CCC(CNS(=O)(=O)c2cccc3nsnc23)CC1)N1CC=C(c2ccccc2)CC1 (stereo not drawn),"32.6 µM [falling, single point]",
COc1cc(/C=C/C(=O)OCC(=O)N(C)C2CCS(=O)(=O)C2)ccc1OC(F)F (stereo not drawn),"35.5 µM [falling, partial curve, poor fit]",
CC(C)(NC(=O)N1CCCC1)c1cccc(C(C)(C)NC(=O)N2CCCC2)c1,"0.731 µM [falling, partial curve, poor fit]",
CC1(C)Cc2ccccc2C(=NCCCCCC(=O)O)N1,"23.1 µM [rising, single point]",
COc1ccc(Oc2nc3ccccc3n3cccc23)cc1,"6.51 µM [rising, partial curve, poor fit]",
COc1ccc(Nc2nc(-c3c[nH]c4ccccc34)cs2)cc1,"29.1 µM [falling, single point]",
Cc1ccc([N+](=O)[O-])cc1NC(=O)CN(C(=O)c1ccccc1Cl)C1CCCCC1,,"23.1 µM [rising, partial curve, poor fit]"
O=C(OCCCOC(=O)c1ccc(O)cc1)c1ccc(O)cc1,"35.5 µM [falling, single point]",
O=Cc1cn(CCOc2ccccc2)c2ccccc12,"7.94 µM [rising, partial curve, poor fit]",
CCn1c(O)c(C=Nc2ccccc2)sc1=S,"35.5 µM [falling, single point]",
CCOc1ncccc1C(=O)OCc1ccc(C(=O)OC)o1,"6.31 µM [rising, single point]",
COc1ccc(CN2CC(C(=O)NCc3ccccn3)CC2=O)cc1 (stereo not drawn),"29.1 µM [rising, single point]",
Oc1cccc(Nc2nc(N3CCOCC3)nc(N3CCOCC3)n2)c1,"15.8 µM [falling, single point]","8.91 µM [falling, partial curve, poor fit]"
Cc1cc(C)c2sc(NC(=O)c3ccc([N+](=O)[O-])o3)nc2c1,"35.5 µM [falling, single point]",
COc1ccccc1CNC(=O)C(=O)NCC1OCCN1S(=O)(=O)c1cccs1 (stereo not drawn),"11.2 µM [falling, partial curve, poor fit]",
CC1CC(C)CN(CCCNC(=O)c2cc3c(s2)-c2ccccc2OC3)C1 (stereo not drawn),"39.8 µM [falling, partial curve, poor fit]",
Fc1ccc(NC(=S)NC23CN4CN(CN(C4)C2)C3)cc1,"25.9 µM [rising, single point]",

SMILES,AC50 [1],AC50 [2]
O=C(O)c1cccc(NC(=O)c2cccc(S(=O)(=O)N3CCc4ccccc43)c2)c1,"14.1 µM [rising, partial curve, poor fit]",
O=C(Nc1ccc(F)cc1)N1CCN(C/C=C/c2ccccc2)CC1,"35.5 µM [rising, partial curve, poor fit]",
COc1cc(C(=O)O/N=C(\N)c2ccccn2)cc(OC)c1OC,"20 µM [falling, single point]",
CCOC(=O)c1cn2nc(Oc3cccc(F)c3)ccc2n1,"28.2 µM [falling, single point]",
CCOc1ccc(C2C=C(c3ccc(C)cc3)Nc3nnnn32)cc1 (stereo not drawn),"35.5 µM [falling, single point]",
CCOc1ccccc1C(=O)N1c2ccccc2Sc2ccccc21,"29.1 µM [falling, single point]",
COc1ccc(O)c(C(=O)c2cnn(C(=O)c3cccc(S(=O)(=O)N4CCOCC4)c3)c2)c1,"12.6 µM [falling, partial curve, poor fit]",
COC(=O)COc1cccc(NC(=O)c2cc(OC)cc(OC)c2)c1,"11.2 µM [falling, partial curve, poor fit]",
CCc1c(C)nc(SCCOc2ccc(OC(C)C)cc2)[nH]c1=O,"16.4 µM [rising, partial curve, poor fit]",
COc1ccc(-c2n[nH]c(C)c2-c2ccc(Cl)cc2)c(O)c1,"0.631 µM [rising, full curve, poor fit]",
O=C(O)CCc1ccc(S(=O)(=O)Nc2ccccc2C(=O)NCCc2ccccc2)cc1,"1.41 µM [rising, full curve, poor fit]",
O=C(Cn1cc2c(n1)CCCC2)NC1CCCCCC1,"18.4 µM [rising, partial curve, poor fit]",
C=CCSc1nnc(NC(=O)CSc2nnc(C)s2)s1,"14.6 µM [falling, partial curve, poor fit]",
COc1ccc(/C=C(/C(=O)N2CCCCC2C(=O)O)c2ccc(OC)c(OC)c2)cc1 (stereo not drawn),"25.9 µM [rising, single point]",
COc1ccc(CCNC(=O)CNC(=O)Cn2cnc3sc(C)c(C)c3c2=O)cc1OC,"2.24 µM [rising, partial curve]",
COC(=O)c1ccc(CSc2ccc3nnc(-c4ccccn4)n3n2)o1,"18.4 µM [falling, partial curve, poor fit]",
CCc1ccc(C(C)NC(=O)C2(C)CC2(Br)Br)cc1 (stereo not drawn),"0.164 µM [falling, full curve, poor fit]",
C/C=C/c1ccc(O)c(OC)c1,"29.1 µM [falling, single point]",
COc1cc(OC)cc(C(=O)N2CCC(N3CCCCCC3)CC2)c1,"11.6 µM [rising, partial curve, poor fit]",
Cc1ccc(C(NC(=O)N2CCOCC2)C(Cl)Cl)cc1F (stereo not drawn),"3.66 µM [falling, partial curve, poor fit]",

# 2 of these compounds in a different format.
SMILES | AC50 [1] | AC50 [2]
COc1ccc(CN2CC(C(=O)NCc3ccccn3)CC2=O)cc1 (stereo not drawn) | 29.1 µM [rising, single point] | 
Oc1cccc(Nc2nc(N3CCOCC3)nc(N3CCOCC3)n2)c1 | 15.8 µM [falling, single point] | 8.91 µM [falling, partial curve, poor fit]
